Earlier results on one molecule are cited in patent US20220184234A1, “METABOLIC TARGETING OF LOW GRADE TUMORS” (SonalaSense, Inc., priority 2020, published 2022).

The series deals with tumor. Particulars: rats, 20 mg/kg 5-ALA, cited from earlier work.
Setting [1] is: sonication at 13.8 W/cm^2 for 20 minutes.

Structures are written as SMILES. Where two headings read alike, the source gives them in different places.

Take `NCC(=O)CCC(=O)O` [5-ALA, 5-aminolevulinic acid]: under setting [1], the “rise of tumor temperature” value is “about 2 °C” and the tumor temperature reached was 32 °C. Also, the tumor temperature reached result (sonication at 27.6 W/cm^2 for 20 minutes) was “about 37 °C”.
